Earlier results, collected in PMC11973072, “Computational screening for novel α-glucosidase inhibitory peptides from Chlamys nobilis adductor muscle as a potential antidiabetic agent” (Frontiers in Nutrition, 2025).
The match of structure and compound is tentative.

Amino acid sequences for entries named in this document (tags omitted).
UniProt P53341, whole entry: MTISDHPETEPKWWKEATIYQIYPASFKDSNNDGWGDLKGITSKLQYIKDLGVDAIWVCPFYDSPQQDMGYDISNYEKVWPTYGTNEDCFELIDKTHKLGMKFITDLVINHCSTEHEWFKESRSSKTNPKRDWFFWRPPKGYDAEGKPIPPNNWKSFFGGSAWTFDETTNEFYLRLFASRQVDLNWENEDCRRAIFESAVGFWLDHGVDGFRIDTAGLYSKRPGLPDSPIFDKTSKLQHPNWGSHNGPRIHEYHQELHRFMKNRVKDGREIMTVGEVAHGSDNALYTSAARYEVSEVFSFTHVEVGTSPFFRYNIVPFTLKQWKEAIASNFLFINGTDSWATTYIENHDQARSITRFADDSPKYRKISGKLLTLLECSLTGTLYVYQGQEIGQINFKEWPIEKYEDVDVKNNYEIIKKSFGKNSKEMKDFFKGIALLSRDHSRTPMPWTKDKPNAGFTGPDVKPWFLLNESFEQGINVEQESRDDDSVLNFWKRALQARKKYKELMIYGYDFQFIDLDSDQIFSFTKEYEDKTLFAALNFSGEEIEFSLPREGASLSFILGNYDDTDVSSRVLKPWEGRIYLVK

Target: α-glucosidase (Saccharomyces cerevisiae, UniProt P53341)
Settings: read-out: IC50 value for α-glucosidase inhibition; from almond oil production residues; cited from earlier work

SMILES: N[C@@H](Cc1c[nH]c2ccccc12)C(=O)N[C@@H](Cc1c[nH]cn1)C(=O)O
- IC50: 17 µM
